PMC12557607
These are yes or no findings as the source states them, for the method shown. In cells and extracts the contact can be indirect. Some entries that bind do so weakly or less than the wild type.

What was measured:
[1] = biological target: FAM136A-HA (human) (UniProt Q96C01); assay: co-IP; FAM136A-HA precipitated with anti-HA agarose from HEK293 cells after NEM; denaturing lysis (30 mM Tris pH 8.1, 100 mM NaCl, 5 mM EDTA, SDS, then Triton X-100); blot for MIA40
[2] = biological target: FAM136A-HA (human) (UniProt Q96C01); assay: co-IP; FAM136A-HA precipitated with anti-HA agarose from HEK293 cells after NEM (20 mM); native lysis (100 mM Na-Pi pH 8.1, 100 mM NaCl, 1 % Triton X-100); blot for MIA40; also after 4 h cycloheximide (100 ug/ml)

binding [1]: binds
binding [2]: binds
B1: MIA40 (enzyme, UniProt Q8N4Q1 1-142)
chain: MSYCRQEGKDRIIFVTKEDHETPSSAELVADDPNDPYEEHGLILPNGNINWNCPCLGGMASGPCGEQFKSAFSCFHYSTEEIKGSDCVDQFRAMQECMQKYPDLYPQEDEDEEEEREKKPAEQAEETAPIEATATKEEEGSS
